These results are taken from paper PMC6770448.

For assay [1], the target named is T1, TCP5 fused to BD (yeast two-hybrid) (Arabidopsis thaliana) (UniProt Q9FME3).
T1 sequence: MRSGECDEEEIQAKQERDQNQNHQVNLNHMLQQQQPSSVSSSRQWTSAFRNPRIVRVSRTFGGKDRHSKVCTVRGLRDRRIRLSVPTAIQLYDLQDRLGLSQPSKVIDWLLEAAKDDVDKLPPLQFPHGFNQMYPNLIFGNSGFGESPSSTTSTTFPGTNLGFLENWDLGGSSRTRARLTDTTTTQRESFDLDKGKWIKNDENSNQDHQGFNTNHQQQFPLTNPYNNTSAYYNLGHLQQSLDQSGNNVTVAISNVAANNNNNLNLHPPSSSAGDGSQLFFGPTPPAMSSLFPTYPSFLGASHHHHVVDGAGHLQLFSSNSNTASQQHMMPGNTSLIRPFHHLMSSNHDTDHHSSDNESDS
Put plainly: two-hybrid; Matchmaker two-hybrid system (Takara); TCP-BD and ATHB-AD; dilutions of yeast spotted on medium with or without histidine.

The target in assay [2] is T2, TCP17 fused to BD (yeast two-hybrid) (Arabidopsis thaliana) (UniProt Q9LEZ9).
T2 sequence: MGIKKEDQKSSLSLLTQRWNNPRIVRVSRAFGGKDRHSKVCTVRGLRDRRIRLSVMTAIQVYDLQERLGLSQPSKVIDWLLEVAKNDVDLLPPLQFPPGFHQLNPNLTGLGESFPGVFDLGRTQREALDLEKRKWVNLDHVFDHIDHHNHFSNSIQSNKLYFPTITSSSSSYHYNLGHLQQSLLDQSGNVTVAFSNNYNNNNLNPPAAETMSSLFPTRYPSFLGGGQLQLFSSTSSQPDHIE
Described as above.

Assay [3] addresses T3, TCP13 fused to BD (yeast two-hybrid) (Arabidopsis thaliana) (UniProt Q9S7W5).
T3 sequence: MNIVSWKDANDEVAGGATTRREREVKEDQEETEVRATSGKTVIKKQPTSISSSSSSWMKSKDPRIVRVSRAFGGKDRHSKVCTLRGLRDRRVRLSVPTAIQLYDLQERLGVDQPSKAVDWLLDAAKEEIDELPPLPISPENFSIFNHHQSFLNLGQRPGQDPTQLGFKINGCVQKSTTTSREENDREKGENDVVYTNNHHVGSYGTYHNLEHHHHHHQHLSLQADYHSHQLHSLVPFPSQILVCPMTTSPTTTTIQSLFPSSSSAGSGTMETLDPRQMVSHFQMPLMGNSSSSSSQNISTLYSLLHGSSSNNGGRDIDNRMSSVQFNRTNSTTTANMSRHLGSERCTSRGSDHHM
Described as above.

Assay [4] concerns the target T4, TCP17-YFP^C (BiFC) (Arabidopsis thaliana) (UniProt Q9LEZ9).
T4 sequence: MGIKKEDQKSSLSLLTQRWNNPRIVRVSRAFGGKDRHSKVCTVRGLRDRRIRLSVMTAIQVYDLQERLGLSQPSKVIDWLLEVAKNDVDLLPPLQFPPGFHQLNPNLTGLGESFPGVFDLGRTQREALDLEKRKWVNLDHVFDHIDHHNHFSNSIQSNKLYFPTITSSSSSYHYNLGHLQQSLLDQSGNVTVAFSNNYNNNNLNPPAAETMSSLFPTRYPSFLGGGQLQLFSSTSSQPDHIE
Put plainly: split reporter; BiFC: TCPs-YFP^C and ATHBs-YFP^N plasmids co-introduced into Arabidopsis protoplasts by the PEG-method; nuclei stained with DAPI; fluorescence observed after 16 h.

Assay [5] addresses T5, TCP5-YFP^C (BiFC) (Arabidopsis thaliana) (UniProt Q9FME3).
T5 sequence: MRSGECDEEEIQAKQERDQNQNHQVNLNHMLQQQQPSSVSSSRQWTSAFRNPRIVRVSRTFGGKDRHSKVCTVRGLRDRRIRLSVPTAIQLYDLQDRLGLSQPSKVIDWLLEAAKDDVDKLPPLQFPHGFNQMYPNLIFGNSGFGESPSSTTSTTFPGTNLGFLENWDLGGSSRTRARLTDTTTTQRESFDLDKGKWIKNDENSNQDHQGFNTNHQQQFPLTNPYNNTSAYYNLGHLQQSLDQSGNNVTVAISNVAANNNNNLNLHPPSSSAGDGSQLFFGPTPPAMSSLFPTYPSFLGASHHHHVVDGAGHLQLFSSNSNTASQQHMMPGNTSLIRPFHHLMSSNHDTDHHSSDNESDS
Described as above.

For assay [6], the target named is T6, TCP13-YFP^C (BiFC) (Arabidopsis thaliana) (UniProt Q9S7W5).
T6 sequence: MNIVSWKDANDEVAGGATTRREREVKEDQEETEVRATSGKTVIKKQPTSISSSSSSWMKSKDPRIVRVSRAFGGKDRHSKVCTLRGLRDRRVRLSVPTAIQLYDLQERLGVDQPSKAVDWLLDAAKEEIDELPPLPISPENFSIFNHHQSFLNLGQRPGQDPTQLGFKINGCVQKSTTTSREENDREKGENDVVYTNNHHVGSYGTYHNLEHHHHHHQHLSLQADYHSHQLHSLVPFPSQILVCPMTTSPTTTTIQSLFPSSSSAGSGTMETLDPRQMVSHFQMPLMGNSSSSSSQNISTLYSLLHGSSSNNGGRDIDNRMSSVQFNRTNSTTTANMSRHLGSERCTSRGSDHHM
The description is as above.

No constants are given. Whether binding was seen depends on the method and setting. For some assays here: In cells and extracts the contact can be indirect. Some entries that bind do so weakly or less than the wild type. Where a sequence is shown, tags or fusion partners need not be part of it.

B1: ATHB2 (Arabidopsis thaliana homeobox 2) fused to AD (yeast two-hybrid) (protein, UniProt Q05466 1-284)
chain: MMFEKDDLGLSLGLNFPKKQINLKSNPSVSVTPSSSSFGLFRRSSWNESFTSSVPNSDSSQKETRTFIRGIDVNRPPSTAEYGDEDAGVSSPNSTVSSSTGKRSEREEDTDPQGSRGISDDEDGDNSRKKLRLSKDQSAILEETFKDHSTLNPKQKQALAKQLGLRARQVEVWFQNRRARTKLKQTEVDCEFLRRCCENLTEENRRLQKEVTELRALKLSPQFYMHMSPPTTLTMCPSCEHVSVPPPQPQAATSAHHRSLPVNAWAPATRISHGLTFDALRPRS
On to B1, for which the binding entry in assay [1], in assay [2] and in assay [3] was “binds” throughout.

B2: ATHB2-YFP^N (BiFC) (protein, UniProt Q05466 1-284)
chain: MMFEKDDLGLSLGLNFPKKQINLKSNPSVSVTPSSSSFGLFRRSSWNESFTSSVPNSDSSQKETRTFIRGIDVNRPPSTAEYGDEDAGVSSPNSTVSSSTGKRSEREEDTDPQGSRGISDDEDGDNSRKKLRLSKDQSAILEETFKDHSTLNPKQKQALAKQLGLRARQVEVWFQNRRARTKLKQTEVDCEFLRRCCENLTEENRRLQKEVTELRALKLSPQFYMHMSPPTTLTMCPSCEHVSVPPPQPQAATSAHHRSLPVNAWAPATRISHGLTFDALRPRS
As to B2, the binding result in assay [4], in assay [5] and in assay [6] was “binds” each time.

B3: HAT3-YFP^N (BiFC) (protein, UniProt P46602 1-315)
chain: MSERDDGLGLSLSLSLGFNQKDPSSRLNPMPLASYASSSHMQHMQQSNYNHPQKIQNTWINMFQSSERNSDMRSFLRGIDVNRAPSTVVVDVEDEGAGVSSPNSTVSSVMSGKKSERELMAAAGAVGGGRVEDNEIERASCSLGGGSDDEDGSGNGDDSSRKKLRLSKEQALVLEETFKEHSTLNPKQKMALAKQLNLRTRQVEVWFQNRRARTKLKQTEVDCEYLKRCCENLTDENRRLQKEVSELRALKLSPHLYMHMKPPTTLTMCPSCERVAVTSSSSSVAPPVMNSSSPMGPMSPWAAMPLRQRPAAGSH
Take B3: the binding result in assay [6] is given as “binds”.

B4: HAT3 fused to AD (yeast two-hybrid) (protein, UniProt P46602 1-315)
chain: MSERDDGLGLSLSLSLGFNQKDPSSRLNPMPLASYASSSHMQHMQQSNYNHPQKIQNTWINMFQSSERNSDMRSFLRGIDVNRAPSTVVVDVEDEGAGVSSPNSTVSSVMSGKKSERELMAAAGAVGGGRVEDNEIERASCSLGGGSDDEDGSGNGDDSSRKKLRLSKEQALVLEETFKEHSTLNPKQKMALAKQLNLRTRQVEVWFQNRRARTKLKQTEVDCEYLKRCCENLTDENRRLQKEVSELRALKLSPHLYMHMKPPTTLTMCPSCERVAVTSSSSSVAPPVMNSSSPMGPMSPWAAMPLRQRPAAGSH
Regarding B4, the binding entry in assay [1], in assay [2] and in assay [3] was “binds” in each case.

B5: ATHB4-YFP^N (BiFC) (protein, UniProt P92953 1-318)
chain: MGERDDGLGLSLSLGNSQQKEPSLRLNLMPLTTSSSSSSFQHMHNQNNNSHPQKIHNISWTHLFQSSGIKRTTAERNSDAGSFLRGFNVNRAQSSVAVVDLEEEAAVVSSPNSAVSSLSGNKRDLAVARGGDENEAERASCSRGGGSGGSDDEDGGNGDGSRKKLRLSKDQALVLEETFKEHSTLNPKQKLALAKQLNLRARQVEVWFQNRRARTKLKQTEVDCEYLKRCCDNLTEENRRLQKEVSELRALKLSPHLYMHMTPPTTLTMCPSCERVSSSAATVTAAPSTTTTPTVVGRPSPQRLTPWTAISLQQKSGR
In the case of B5, in assay [6], the binding result is reported as “binds”.

B6: ATHB4 fused to AD (yeast two-hybrid) (protein, UniProt P92953 1-318)
chain: MGERDDGLGLSLSLGNSQQKEPSLRLNLMPLTTSSSSSSFQHMHNQNNNSHPQKIHNISWTHLFQSSGIKRTTAERNSDAGSFLRGFNVNRAQSSVAVVDLEEEAAVVSSPNSAVSSLSGNKRDLAVARGGDENEAERASCSRGGGSGGSDDEDGGNGDGSRKKLRLSKDQALVLEETFKEHSTLNPKQKLALAKQLNLRARQVEVWFQNRRARTKLKQTEVDCEYLKRCCDNLTEENRRLQKEVSELRALKLSPHLYMHMTPPTTLTMCPSCERVSSSAATVTAAPSTTTTPTVVGRPSPQRLTPWTAISLQQKSGR
For the molecule B6, the binding entry in assay [1], in assay [2] and in assay [3] was “binds” throughout.
